Results published in publication PMC11282044.
These are yes or no findings as the source states them, for the method shown. Binding seen in cells or lysates may run through a third protein. Some entries that bind do so weakly or less than the wild type. Tags and fused reporters may be left off the sequences shown.

T1: cLUC-ROC1 (rice) (UniProt Q6ZAR0)
T1 sequence: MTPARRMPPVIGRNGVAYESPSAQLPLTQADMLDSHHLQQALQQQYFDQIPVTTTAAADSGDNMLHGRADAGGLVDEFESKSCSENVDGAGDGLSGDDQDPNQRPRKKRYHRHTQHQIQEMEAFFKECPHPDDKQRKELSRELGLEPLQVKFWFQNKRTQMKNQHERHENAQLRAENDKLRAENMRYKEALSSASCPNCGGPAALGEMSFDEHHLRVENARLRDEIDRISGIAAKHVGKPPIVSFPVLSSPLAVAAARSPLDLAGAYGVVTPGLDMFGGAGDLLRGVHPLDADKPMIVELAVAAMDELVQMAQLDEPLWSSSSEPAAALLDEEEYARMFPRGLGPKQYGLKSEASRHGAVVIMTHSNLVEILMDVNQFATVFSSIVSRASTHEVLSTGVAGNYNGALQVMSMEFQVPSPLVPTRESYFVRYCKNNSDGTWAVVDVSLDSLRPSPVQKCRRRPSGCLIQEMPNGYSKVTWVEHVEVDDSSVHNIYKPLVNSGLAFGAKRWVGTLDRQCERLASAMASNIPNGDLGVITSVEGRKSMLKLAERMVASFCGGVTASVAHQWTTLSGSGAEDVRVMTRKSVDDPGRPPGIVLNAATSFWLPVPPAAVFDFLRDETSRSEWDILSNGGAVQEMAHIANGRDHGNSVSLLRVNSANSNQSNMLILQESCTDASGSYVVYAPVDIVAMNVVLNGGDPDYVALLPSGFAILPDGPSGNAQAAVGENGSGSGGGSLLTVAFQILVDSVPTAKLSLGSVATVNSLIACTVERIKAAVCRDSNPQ

T2: ROC1-Flag (rice) (UniProt Q6ZAR0)
T2 sequence: T1 sequence

B1: ROC8-nLUC (protein, UniProt Q69T58 1-710)
chain: MDFGDEPEGSDSQRRRKRYHRHTPRQIQQLEAMFKECPHPDENQRAQLSRELGLEPRQIKFWFQNRRTQMKAQHERADNCFLRAENDKIRCENIAIREALKNVICPTCGGPPVGEDYFDEQKLRMENARLKEELDRVSNLTSKYLGRPFTQLPPATPPMTVSSLDLSVGGMGGPSLDLDLLSGGSSGIPFQLPAPVSDMERPMMAEMATRAMDELIRLAQAGDHIWSKSPGGGVSGGDARETLNVDTYDSIFSKPGGSYRAPSINVEGSRESGLVLMSAVALADVFMDTNKWMEFFPSIVSKAHTIDVLVNGMGGRSESLILMYEELHIMTPAVPTREVNFVRYCRQIEQGLWAIADVSVDLQRDAHFGAPPPRSRRLPSGCLIADMANGYSKVTWVEHMEVEEKSPINVLYRDLVLSGAAFGAHRWLAALQRACERYASLVALGVPHHIAGVTPEGKRSMMKLSQRMVNSFCSSLGASQMHQWTTLSGSNEVSVRVTMHRSTDPGQPNGVVLSAATSIWLPVPCDHVFAFVRDENTRSQWDVLSHGNQVQEVSRIPNGSNPGNCISLLRGLNASQNSMLILQESCTDASGSLVVYSPIDIPAANVVMSGEDPSSIPLLPSGFTILPDGRPGSAAGASTSSAGPLAAARGGGGGGAGGGSVVTVAFQILVSSLPSSKLNAESVATVNGLITTTVEQIKAALNCSAHGHHP
B2: ROC5-nLUC (protein, UniProt Q6EPF0 1-804)
chain: MSFGGLFDGGGGGGMQFPFASGFASSPALSLALDNAGGGIGGRMLGGGAGAGSSAGGAMTRDTEAENDSRSGSDHLDAISAAGEDDVEDAEPSNSRKRKKRYHRHTPQQIQELEALFKECPHPDEKQRAELSRRLSLDARQVKFWFQNRRTQMKTQLERHENALLKQENDKLRAENMTIREAMRSPMCGSCGSPAMLGEVSLEEQHLRIENARLKDELNRVCALATKFLGKPISLLSPPPLLQPHLSLPMPNSSLELAIGGIGGLGSLGTLPGCMNEFAGGVSSPMGTVITPARATGAAIPSLVGNIDRSVFLELAISAMDELVKMAQMDDPLWVPALPGSPSKEVLNFEEYLHSFLPCIGMKPAGYVSEASRESGLVIIDNSLALVETLMDERRWSDMFSCMIAKATVLEEVSTGIAGSRNGALLLMKAELQVLSPLVPIREVTFLRFCKQLAEGAWAVVDVSIDGLVRDHNSGTAPTGGNVKCRRVPSGCVMQDTPNGYCKVTWVEHTEYDEASVHQLYRPLLRSGLAFGARRWLATLQRQCECLAILMSSATVTANDSTAISQEGKRSMLKLARRMTENFCAGVSASSAREWSKLDGATGSIGEDVRVMARKSVSEPGEPPGVVLSAATSVWVPVAPEKLFNFLRDEQLRAEWDILSNGGPMQEMTQIAKGQRDGNSVSLLRASAVSANQSSMLILQETCTDASGSIVVYAPVDIPAMQLVMNGGDSTYVALLPSGFAILPDGPRIGATGYETGGSLLTVAFQILVNNQPTAKLTVESVETVNNLISCTIKKIKTALQCDA
B3: ROC1-nLUC (protein, UniProt Q6ZAR0 1-784)
chain: T1 sequence
B4: ROC8-GFP (protein, UniProt Q69T58 1-710)
chain: B1 chain

Legend:
[1] = target: T1, cLUC-ROC1 (rice); assay: split reporter; LCI interaction intensity assay: combinations injected into the same N. benthamiana leaves, with pGreenII 0800-LUC co-transformed; LUC by CCD and LUC/REN by dual luciferase assay, n = 5
[2] = target: T1, cLUC-ROC1 (rice); assay: split reporter; luciferase complementation imaging (LCI) in N. benthamiana leaves, 2 days after infiltration, CCD camera
[3] = target: T2, ROC1-Flag (rice); assay: co-IP; ROC1-Flag co-expressed with GFP fusions in N. benthamiana; extract in NB1 buffer; anti-FLAG affinity beads, 3 h, 6 washes; blot with anti-GFP

Binder | binding [1] | binding [2] | binding [3]
B1 | binds | binds | 
B2 | binds | binds | 
B3 | binds weakly | binds | 
B4 |  |  | binds
